Measured values from the supplement of paper PMC10849652.
The other results are listed elsewhere or left out.

Chains of the proteins cited; added tags and fusions are not shown. Lines headed by an entry give the natural chain unless they say otherwise; changes in a name come on top.
UniProt Q0GE19: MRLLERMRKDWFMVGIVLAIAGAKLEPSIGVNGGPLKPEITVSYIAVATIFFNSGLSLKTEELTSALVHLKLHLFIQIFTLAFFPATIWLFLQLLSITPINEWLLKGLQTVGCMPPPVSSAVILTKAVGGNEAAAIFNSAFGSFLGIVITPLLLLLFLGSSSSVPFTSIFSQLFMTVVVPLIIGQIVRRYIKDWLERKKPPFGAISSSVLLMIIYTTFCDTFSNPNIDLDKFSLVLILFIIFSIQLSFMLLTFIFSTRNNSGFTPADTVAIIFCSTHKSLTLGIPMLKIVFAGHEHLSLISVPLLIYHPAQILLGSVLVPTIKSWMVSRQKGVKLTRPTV
UniProt Q86VD7: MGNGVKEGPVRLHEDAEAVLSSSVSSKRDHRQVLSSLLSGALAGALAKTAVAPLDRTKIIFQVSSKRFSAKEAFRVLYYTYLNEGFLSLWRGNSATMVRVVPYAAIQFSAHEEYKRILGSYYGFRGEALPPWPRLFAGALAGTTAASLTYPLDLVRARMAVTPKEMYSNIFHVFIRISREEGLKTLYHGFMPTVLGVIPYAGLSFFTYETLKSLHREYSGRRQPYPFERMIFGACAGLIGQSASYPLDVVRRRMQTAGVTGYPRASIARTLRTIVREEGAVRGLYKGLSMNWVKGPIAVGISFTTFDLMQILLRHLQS
UniProt Q8N8R3: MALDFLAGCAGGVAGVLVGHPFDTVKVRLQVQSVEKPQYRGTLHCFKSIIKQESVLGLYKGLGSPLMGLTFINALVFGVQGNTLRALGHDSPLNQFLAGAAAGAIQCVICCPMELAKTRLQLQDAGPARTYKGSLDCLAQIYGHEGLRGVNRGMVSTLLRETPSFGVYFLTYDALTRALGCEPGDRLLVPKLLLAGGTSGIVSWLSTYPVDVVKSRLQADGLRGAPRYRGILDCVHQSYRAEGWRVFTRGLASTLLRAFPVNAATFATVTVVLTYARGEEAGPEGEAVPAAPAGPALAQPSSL
UniProt Q3KQZ1: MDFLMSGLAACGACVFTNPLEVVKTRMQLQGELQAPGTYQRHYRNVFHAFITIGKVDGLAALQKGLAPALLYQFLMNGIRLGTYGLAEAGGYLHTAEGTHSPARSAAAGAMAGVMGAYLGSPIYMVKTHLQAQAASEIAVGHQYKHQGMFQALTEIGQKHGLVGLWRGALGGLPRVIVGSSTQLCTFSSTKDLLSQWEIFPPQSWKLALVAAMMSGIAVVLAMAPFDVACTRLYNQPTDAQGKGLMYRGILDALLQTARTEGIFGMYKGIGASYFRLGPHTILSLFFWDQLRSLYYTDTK
UniProt Q96QE2: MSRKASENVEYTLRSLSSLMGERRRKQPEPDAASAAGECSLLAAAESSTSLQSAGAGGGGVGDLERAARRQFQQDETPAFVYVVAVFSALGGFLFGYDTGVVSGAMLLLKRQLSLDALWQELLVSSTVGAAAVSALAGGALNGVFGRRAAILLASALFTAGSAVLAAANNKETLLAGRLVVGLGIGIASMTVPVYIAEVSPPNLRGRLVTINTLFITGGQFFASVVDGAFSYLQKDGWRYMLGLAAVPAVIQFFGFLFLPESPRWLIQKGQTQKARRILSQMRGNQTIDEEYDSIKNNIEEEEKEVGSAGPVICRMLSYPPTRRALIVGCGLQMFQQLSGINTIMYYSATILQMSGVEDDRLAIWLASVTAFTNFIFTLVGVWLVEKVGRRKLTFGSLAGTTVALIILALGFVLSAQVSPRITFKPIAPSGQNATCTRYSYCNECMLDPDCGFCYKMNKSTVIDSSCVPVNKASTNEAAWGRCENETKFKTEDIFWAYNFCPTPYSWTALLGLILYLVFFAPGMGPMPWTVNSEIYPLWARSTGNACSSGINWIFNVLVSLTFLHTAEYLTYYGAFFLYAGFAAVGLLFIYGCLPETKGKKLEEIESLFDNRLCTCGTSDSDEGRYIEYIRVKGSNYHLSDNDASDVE
UniProt P48067: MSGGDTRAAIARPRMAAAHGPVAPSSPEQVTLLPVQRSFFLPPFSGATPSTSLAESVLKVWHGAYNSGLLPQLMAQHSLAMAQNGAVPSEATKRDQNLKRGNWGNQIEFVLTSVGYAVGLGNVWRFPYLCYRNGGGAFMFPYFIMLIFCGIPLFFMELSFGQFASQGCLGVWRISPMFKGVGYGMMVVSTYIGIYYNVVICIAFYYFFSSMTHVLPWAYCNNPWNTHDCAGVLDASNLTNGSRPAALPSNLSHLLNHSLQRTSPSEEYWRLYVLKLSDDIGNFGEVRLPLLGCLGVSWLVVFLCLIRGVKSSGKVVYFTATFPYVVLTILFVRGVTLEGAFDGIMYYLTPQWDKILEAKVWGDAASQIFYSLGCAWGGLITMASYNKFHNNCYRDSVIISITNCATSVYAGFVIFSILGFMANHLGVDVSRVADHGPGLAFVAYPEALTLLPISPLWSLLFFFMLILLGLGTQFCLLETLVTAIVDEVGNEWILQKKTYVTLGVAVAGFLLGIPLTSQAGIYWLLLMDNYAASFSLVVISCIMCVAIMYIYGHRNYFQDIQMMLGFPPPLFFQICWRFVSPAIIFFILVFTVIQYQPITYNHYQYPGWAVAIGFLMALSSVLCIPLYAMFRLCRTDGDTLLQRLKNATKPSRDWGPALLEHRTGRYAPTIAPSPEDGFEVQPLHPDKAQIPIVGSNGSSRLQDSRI
UniProt Q96DW6: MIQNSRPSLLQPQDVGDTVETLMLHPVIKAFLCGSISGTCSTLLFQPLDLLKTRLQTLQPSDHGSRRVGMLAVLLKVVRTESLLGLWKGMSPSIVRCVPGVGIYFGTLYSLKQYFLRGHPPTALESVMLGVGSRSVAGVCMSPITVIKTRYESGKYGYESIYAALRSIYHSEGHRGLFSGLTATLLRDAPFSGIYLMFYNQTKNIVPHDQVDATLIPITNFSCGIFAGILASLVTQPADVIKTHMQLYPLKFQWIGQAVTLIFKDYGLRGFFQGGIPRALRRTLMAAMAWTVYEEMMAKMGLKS
UniProt Q8NEW0: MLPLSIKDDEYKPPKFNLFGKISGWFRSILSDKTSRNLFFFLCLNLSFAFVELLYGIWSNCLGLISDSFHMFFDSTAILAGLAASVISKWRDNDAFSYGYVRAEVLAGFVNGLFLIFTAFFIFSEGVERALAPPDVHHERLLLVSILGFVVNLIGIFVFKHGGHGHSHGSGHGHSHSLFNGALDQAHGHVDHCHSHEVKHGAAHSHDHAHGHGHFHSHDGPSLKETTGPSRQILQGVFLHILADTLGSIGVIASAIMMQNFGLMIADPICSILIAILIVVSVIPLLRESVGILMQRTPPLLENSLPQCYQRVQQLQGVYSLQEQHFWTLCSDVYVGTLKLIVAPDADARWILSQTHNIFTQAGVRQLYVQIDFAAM
UniProt P78382: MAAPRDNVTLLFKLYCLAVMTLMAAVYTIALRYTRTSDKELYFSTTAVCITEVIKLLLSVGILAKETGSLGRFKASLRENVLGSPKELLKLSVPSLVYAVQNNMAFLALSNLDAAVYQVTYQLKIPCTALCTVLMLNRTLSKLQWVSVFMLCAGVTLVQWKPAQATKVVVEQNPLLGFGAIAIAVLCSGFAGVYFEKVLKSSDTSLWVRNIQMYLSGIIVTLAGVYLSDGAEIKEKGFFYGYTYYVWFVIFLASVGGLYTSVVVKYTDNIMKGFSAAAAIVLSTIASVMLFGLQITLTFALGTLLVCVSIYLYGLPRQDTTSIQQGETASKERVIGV
UniProt P04920: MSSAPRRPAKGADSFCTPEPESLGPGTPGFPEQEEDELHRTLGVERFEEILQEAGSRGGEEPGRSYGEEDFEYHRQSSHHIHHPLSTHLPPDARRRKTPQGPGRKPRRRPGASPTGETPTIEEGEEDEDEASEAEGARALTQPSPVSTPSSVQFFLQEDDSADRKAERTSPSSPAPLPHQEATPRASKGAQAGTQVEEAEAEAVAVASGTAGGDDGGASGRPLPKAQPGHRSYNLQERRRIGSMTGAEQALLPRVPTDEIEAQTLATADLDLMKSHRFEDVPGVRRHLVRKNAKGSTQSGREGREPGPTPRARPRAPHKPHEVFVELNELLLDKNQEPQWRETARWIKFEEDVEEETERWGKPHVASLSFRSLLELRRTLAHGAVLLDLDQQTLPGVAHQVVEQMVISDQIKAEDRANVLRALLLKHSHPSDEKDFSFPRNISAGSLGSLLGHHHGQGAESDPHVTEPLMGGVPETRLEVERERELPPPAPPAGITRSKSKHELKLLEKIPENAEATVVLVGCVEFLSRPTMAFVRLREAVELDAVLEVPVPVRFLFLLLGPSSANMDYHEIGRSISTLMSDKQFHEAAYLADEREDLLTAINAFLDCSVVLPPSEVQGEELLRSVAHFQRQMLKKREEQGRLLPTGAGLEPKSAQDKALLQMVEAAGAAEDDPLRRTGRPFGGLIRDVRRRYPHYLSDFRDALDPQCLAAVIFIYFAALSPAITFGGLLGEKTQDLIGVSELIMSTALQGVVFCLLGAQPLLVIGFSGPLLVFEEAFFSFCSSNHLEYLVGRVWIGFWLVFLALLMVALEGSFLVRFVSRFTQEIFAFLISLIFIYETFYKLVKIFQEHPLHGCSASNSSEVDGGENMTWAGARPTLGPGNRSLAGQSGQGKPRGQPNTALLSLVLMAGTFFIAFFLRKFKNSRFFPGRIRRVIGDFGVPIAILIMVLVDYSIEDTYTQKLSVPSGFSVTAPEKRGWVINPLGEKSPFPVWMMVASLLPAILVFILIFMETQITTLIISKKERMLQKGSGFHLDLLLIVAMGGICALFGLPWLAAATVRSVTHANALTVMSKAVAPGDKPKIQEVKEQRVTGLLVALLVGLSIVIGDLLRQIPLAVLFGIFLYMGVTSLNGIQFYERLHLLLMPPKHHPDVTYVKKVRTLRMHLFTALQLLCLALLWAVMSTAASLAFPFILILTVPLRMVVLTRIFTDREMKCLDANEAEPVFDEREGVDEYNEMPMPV
UniProt Q14493, whole entry, looked up: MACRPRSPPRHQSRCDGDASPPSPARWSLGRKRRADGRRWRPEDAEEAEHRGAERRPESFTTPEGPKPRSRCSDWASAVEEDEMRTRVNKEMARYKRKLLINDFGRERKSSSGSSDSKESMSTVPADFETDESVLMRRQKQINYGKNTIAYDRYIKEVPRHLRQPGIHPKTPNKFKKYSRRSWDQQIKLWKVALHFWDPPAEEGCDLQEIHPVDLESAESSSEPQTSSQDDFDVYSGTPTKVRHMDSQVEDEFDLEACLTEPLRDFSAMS
UniProt Q9H2X9: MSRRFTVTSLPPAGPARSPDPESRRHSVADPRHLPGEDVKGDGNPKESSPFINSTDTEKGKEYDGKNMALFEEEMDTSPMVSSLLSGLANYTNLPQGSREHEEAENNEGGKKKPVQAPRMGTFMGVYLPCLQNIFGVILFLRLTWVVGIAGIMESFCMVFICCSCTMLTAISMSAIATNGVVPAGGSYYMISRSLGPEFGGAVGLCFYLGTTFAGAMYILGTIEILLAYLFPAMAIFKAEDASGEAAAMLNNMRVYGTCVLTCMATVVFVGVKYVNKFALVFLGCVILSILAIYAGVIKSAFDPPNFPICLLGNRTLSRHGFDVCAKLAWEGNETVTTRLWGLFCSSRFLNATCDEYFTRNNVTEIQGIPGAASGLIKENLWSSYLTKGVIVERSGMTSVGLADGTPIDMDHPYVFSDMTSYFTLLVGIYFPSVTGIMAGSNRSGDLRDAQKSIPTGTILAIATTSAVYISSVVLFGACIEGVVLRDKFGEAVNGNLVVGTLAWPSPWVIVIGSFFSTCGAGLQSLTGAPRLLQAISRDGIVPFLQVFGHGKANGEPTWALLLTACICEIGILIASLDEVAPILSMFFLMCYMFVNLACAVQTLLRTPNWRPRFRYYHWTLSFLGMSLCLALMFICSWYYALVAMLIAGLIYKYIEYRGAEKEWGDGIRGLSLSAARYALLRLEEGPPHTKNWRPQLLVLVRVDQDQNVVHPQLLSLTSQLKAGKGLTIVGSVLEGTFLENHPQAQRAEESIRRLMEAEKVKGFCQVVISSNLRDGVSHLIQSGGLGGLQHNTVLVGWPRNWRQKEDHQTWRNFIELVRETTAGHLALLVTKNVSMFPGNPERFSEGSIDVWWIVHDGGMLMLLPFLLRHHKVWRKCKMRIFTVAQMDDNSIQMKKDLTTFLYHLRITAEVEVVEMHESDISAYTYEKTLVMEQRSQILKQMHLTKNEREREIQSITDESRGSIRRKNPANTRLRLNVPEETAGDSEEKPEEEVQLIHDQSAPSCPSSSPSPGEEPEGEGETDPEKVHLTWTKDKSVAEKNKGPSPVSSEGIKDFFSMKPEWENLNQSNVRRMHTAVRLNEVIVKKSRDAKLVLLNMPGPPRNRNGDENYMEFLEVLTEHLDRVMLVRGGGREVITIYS
UniProt O15431: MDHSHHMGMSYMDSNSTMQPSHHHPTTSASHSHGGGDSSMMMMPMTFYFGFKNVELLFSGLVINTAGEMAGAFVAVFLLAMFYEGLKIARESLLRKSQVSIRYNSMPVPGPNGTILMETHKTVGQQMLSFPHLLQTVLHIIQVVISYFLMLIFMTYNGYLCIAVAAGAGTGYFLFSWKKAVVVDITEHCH

Legend:
Assay in all cases: log2 fold change, soluble protein after heating vs DMSO (PISA); higher = thermal stabilisation; K562 cells, 10 uM, 30 min; active = over 0.2 and 3.5 SD of the protein, either way, in both replicates (recomputed)
[1] = compound: CC[C@@H]1C(=O)N(C)c2cnc(Nc3ccc(C(=O)NC4CCN(C)CC4)cc3OC)nc2N1C1CCCC1
Method in brief: (§1)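 K562 cells at 2×10^6 cells/mL were treated for 30 min with 10 μM compound, and aliquots were heated for 3 min over 48°C-58°C before pooling. Extraction used PBS with 0.5% NP-40 at 4°C, and soluble protein was the supernatant after 21,000xg for 90 min, measured by TMTpro 16plex LC-MS/MS with channel sums equalised. Thermal stability values, relative to control samples and from duplicates, are log2 fold changes.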

volasertib = compound: CC[C@@H]1C(=O)N(C)c2cnc(Nc3ccc(C(=O)N[C@H]4CC[C@H](N5CCN(CC6CC6)CC5)CC4)cc3OC)nc2N1C(C)C [volasertib]
Method in brief: as §1

[2] = compound: CC[C@H](C)N1C=C(C2=C(C=C(C=C21)C3=CN=C(C=C3)N4CCNCC4)C(=O)NCC5=C(C=C(NC5=O)C)C)C
Method in brief: as §1

[3] = compound: CCn1c(C(=O)N(C2CC2)C2CC2)cc2c3c(ncn3C)c(Nc3cc(C)n(C)n3)nc21
Method in brief: as §1

rosiglitazone = compound: CN(CCOC1=CC=C(C=C1)C[C@H]2C(=O)NC(=O)S2)C3=CC=CC=N3 (racemic) [rosiglitazone]
Method in brief: as §1

Tubastatin A = compound: CN1CCc2c(c3ccccc3n2Cc2ccc(C(=O)NO)cc2)C1 [Tubastatin A]
Method in brief: as §1

[4] = compound: CNC(=O)C1=CC=CC=C1NC2=NC(=NC=C2Cl)NC3=C(C=C(C=C3)N4CCOCC4)OC
Method in brief: as §1

rucaparib = compound: CNCc1ccc(-c2[nH]c3cc(F)cc4c3c2CCNC4=O)cc1 [rucaparib]
Method in brief: as §1

encorafenib = compound: COC(=O)N[C@@H](C)CNc1nccc(-c2cn(C(C)C)nc2-c2cc(Cl)cc(NS(C)(=O)=O)c2F)n1 [encorafenib]
Method in brief: as §1

epoxomicin = compound: CC[C@H](C)[C@@H](C(=O)N[C@@H]([C@@H](C)O)C(=O)N[C@@H](CC(C)C)C(=O)[C@]1(CO1)C)NC(=O)[C@H]([C@@H](C)CC)N(C)C(=O)C [epoxomicin]
Method in brief: as §1

[5] = compound: CCn1cc(-c2ccnc3[nH]c(-c4cccc(CN(C)C)c4)cc23)c(-c2ccc(NC(=O)N(C)C)cc2)n1
Method in brief: as §1

[6] = compound: CN(C)CC(=O)Nc1ccc2[nH]c(=O)c3ccccc3c2c1
Method in brief: as §1

[7] = compound: CN1C2=C(C3=C1C(=O)N(N=C3)CC4=CC(=CC=C4)N)SC(=C2)S(=O)C
Method in brief: as §1

[8] = compound: CN1CCC(CNc2ccc3ncc(-c4cccc(OC(F)(F)F)c4)n3n2)CC1
Method in brief: as §1

saracatinib = compound: CN1CCN(CCOc2cc(OC3CCOCC3)c3c(Nc4c(Cl)ccc5c4OCO5)ncnc3c2)CC1 [saracatinib]
Method in brief: as §1

sotrastaurin = compound: CN1CCN(c2nc(C3=C(c4c[nH]c5ccccc45)C(=O)NC3=O)c3ccccc3n2)CC1 [sotrastaurin]
Method in brief: as §1

defactinib = compound: CNC(=O)c1ccc(Nc2ncc(C(F)(F)F)c(NCc3nccnc3N(C)S(C)(=O)=O)n2)cc1 [defactinib]
Method in brief: as §1

[9] = compound: CNc1nc(-c2ccc3c(N)n[nH]c3c2)cc(N2C[C@@H](C(=O)NC3CCCCC3)CC[C@H]2C)n1
Method in brief: as §1

[10] = compound: COC(=O)[C@H](CCSC)NC(=O)C1=C(C=C(C=C1)NC[C@H](CS)N)C2=CC=CC=C2
Method in brief: as §1

alvocidib = compound: CN1CC[C@H](c2c(O)cc(O)c3c(=O)cc(-c4ccccc4Cl)oc23)[C@H](O)C1 [alvocidib]
Method in brief: as §1

Target | log2 fold change [1] | log2 fold change (volasertib) | log2 fold change [2] | log2 fold change [3] | log2 fold change (rosiglitazone) | log2 fold change (Tubastatin A) | log2 fold change [4] | log2 fold change (rucaparib) | log2 fold change (encorafenib) | log2 fold change (epoxomicin) | log2 fold change [5] | log2 fold change [6] | log2 fold change [7] | log2 fold change [8] | log2 fold change (saracatinib) | log2 fold change (sotrastaurin) | log2 fold change (defactinib) | log2 fold change [9] | log2 fold change [10] | log2 fold change (alvocidib)
SLC10A7 isoform 1 (UniProt Q0GE19) | inactive: 0.02 | inactive: -0.031 | inactive: 0.18 | inactive: -0.028 | inactive: -0.027 | inactive: -0.082 | inactive: 0.07 | inactive: -0.08 | inactive: 0.074 | – | – | – | – | – | – | – | – | – | – | –
SLC25A42 (UniProt Q86VD7) | inactive: -0.025 | inactive: 0.039 | inactive: -0.028 | – | – | inactive: -0.032 | inactive: 0.005 | inactive: 0.021 | inactive: -0.067 | inactive: 0 | inactive: 0.002 | inactive: -0.021 | inactive: 0.022 | inactive: 0.022 | inactive: 0.105 | inactive: 0.023 | inactive: 0.101 | inactive: 0.035 | inactive: 0.083 | –
SLC25A29 (UniProt Q8N8R3) | inactive: 0.356 | inactive: 0.052 | – | inactive: 0.135 | – | inactive: 0.066 | inactive: -0.099 | inactive: -0.128 | inactive: 0.134 | – | – | – | inactive: -0.262 | – | inactive: 0.267 | – | – | inactive: 0.001 | – | –
SLC25A35 (UniProt Q3KQZ1) | inactive: -0.109 | inactive: 0.065 | – | inactive: -0.025 | – | inactive: -0.03 | inactive: -0.065 | inactive: -0.134 | inactive: 0.082 | – | inactive: -0.016 | inactive: 0.002 | inactive: 0.075 | inactive: 0.033 | inactive: 0.095 | – | inactive: -0.089 | inactive: 0.013 | inactive: 0.039 | inactive: -0.036
SLC2A13 (UniProt Q96QE2) | inactive: 0.148 | inactive: 0.006 | – | inactive: 0.046 | inactive: 0.104 | inactive: -0.001 | inactive: 0.085 | inactive: 0.277 | inactive: -0.034 | inactive: 0.044 | inactive: -0.031 | inactive: -0.07 | inactive: 0.081 | inactive: -0.033 | inactive: 0.062 | inactive: -0.018 | inactive: -0.093 | inactive: 0.033 | inactive: 0.025 | inactive: -0.007
SLC6A9 (UniProt P48067) | inactive: 0.044 | inactive: -0.054 | inactive: 0.11 | inactive: 0.021 | inactive: 0.084 | inactive: -0.082 | inactive: -0.048 | inactive: -0.071 | inactive: 0.009 | – | inactive: -0.04 | inactive: 0.046 | inactive: -0.093 | inactive: 0.117 | inactive: 0.04 | inactive: 0.037 | inactive: -0.034 | inactive: 0.037 | inactive: 0.08 | inactive: -0.003
SLC38A9 (UniProt Q8NBW4) | inactive: -0.013 | inactive: -0.003 | inactive: -0.022 | – | – | inactive: -0.05 | inactive: 0.025 | inactive: -0.048 | inactive: -0.001 | inactive: -0.02 | inactive: 0.055 | inactive: -0.039 | inactive: 0.029 | inactive: -0.197 | inactive: 0.053 | inactive: -0.184 | inactive: -0.038 | inactive: -0.073 | inactive: 0.001 | –
SLC25A38 (UniProt Q96DW6) | inactive: 0.013 | inactive: 0.009 | inactive: -0.002 | – | – | inactive: -0.035 | inactive: -0.015 | inactive: -0.002 | inactive: 0.016 | inactive: -0.025 | inactive: 0 | inactive: -0.02 | inactive: -0.017 | inactive: -0.048 | inactive: 0.076 | inactive: -0.027 | inactive: 0.046 | inactive: 0.026 | inactive: -0.057 | –
SLC6A6 (UniProt P31641) | inactive: -0.011 | inactive: 0.01 | inactive: 0 | – | – | inactive: -0.143 | inactive: -0.029 | inactive: 0.065 | inactive: -0.051 | inactive: 0.135 | inactive: -0.053 | inactive: -0.012 | inactive: -0.02 | inactive: 0.084 | inactive: -0.011 | inactive: 0.041 | inactive: -0.051 | inactive: -0.061 | inactive: -0.009 | –
SLC30A7 (UniProt Q8NEW0) | inactive: 0.016 | inactive: -0.074 | inactive: -0.041 | – | – | inactive: -0.107 | inactive: 0.016 | inactive: 0.02 | inactive: 0.059 | inactive: -0.034 | inactive: 0.032 | inactive: 0.014 | inactive: -0.05 | inactive: 0.091 | inactive: 0.077 | inactive: 0.101 | inactive: -0.051 | inactive: -0.026 | inactive: 0.029 | –
SLC35A1 (UniProt P78382) | inactive: 0.148 | inactive: 0.118 | inactive: -0.034 | – | – | inactive: -0.038 | inactive: -0.016 | inactive: 0.048 | inactive: 0.043 | inactive: 0.018 | – | inactive: -0.056 | inactive: -0.191 | – | inactive: 0.038 | inactive: 0.015 | inactive: -0.198 | inactive: -0.112 | inactive: -0.211 | –
SLC29A3 (UniProt Q9BZD2) | inactive: 0.171 | inactive: 0.007 | inactive: 0.05 | – | – | inactive: 0.092 | inactive: 0.105 | inactive: -0.083 | inactive: -0.05 | inactive: -0.048 | – | inactive: 0.002 | inactive: -0.161 | – | inactive: 0.089 | inactive: 0.056 | inactive: 0.013 | inactive: -0.018 | inactive: 0.055 | –
SLC15A4 (UniProt Q8N697) | inactive: 0.05 | inactive: -0.026 | inactive: 0.131 | inactive: 0.046 | inactive: 0.104 | inactive: 0.022 | inactive: 0.022 | inactive: -0.053 | inactive: 0.011 | – | – | inactive: 0.033 | inactive: -0.115 | – | inactive: 0.058 | – | inactive: -0.008 | inactive: -0.027 | inactive: 0.009 | inactive: -0.075
SLC4A2 (UniProt P04920) | inactive: 0.039 | inactive: -0.071 | inactive: -0.044 | – | – | inactive: 0.066 | inactive: -0.006 | inactive: 0.064 | inactive: 0.085 | inactive: 0.029 | inactive: -0.028 | inactive: 0.022 | inactive: 0.035 | inactive: -0.018 | inactive: 0.003 | inactive: -0.029 | inactive: 0.028 | inactive: 0.008 | inactive: -0.067 | –
SLBP (UniProt Q14493) | inactive: -0.052 | inactive: -0.034 | inactive: 0.013 | – | – | inactive: 0.117 | inactive: 0.113 | inactive: -0.158 | inactive: 0.113 | inactive: 0.127 | inactive: 0 | inactive: -0.003 | inactive: 0.113 | active: -0.291 | inactive: -0.083 | inactive: -0.077 | inactive: -0.128 | inactive: 0.02 | inactive: 0 | –
SLC12A5 (UniProt Q9H2X9) | inactive: -0.007 | inactive: -0.033 | – | – | – | inactive: -0.072 | inactive: -0.007 | inactive: -0.138 | inactive: 0.044 | inactive: -0.162 | – | inactive: -0.013 | inactive: 0.316 | – | inactive: -0.152 | inactive: 0.053 | inactive: 0.08 | inactive: 0.148 | inactive: 0.075 | –
SLC1A3 (UniProt P43003) | inactive: -0.065 | inactive: 0.003 | inactive: 0.018 | – | – | inactive: -0.157 | inactive: -0.034 | inactive: 0.027 | inactive: 0.072 | inactive: 0.087 | inactive: -0.101 | inactive: -0.048 | inactive: -0.286 | inactive: 0.254 | inactive: 0.277 | – | inactive: -0.013 | active: 0.481 | inactive: 0.106 | –
SLC35F6 (UniProt Q8N357) | inactive: -0.099 | inactive: -0.053 | inactive: 0.087 | – | – | inactive: -0.05 | inactive: -0.025 | inactive: -0.004 | inactive: -0.042 | inactive: 0.021 | – | inactive: 0.034 | inactive: -0.029 | – | inactive: 0.182 | inactive: -0.071 | inactive: -0.043 | inactive: -0.247 | inactive: 0.007 | –
SLC31A1 (UniProt O15431) | inactive: 0.085 | inactive: 0.155 | – | inactive: 0.01 | inactive: -0.04 | inactive: 0.031 | inactive: -0.06 | inactive: 0.109 | inactive: 0.058 | inactive: 0.122 | inactive: 0.015 | inactive: 0.009 | inactive: -0.189 | inactive: 0.256 | inactive: -0.036 | – | inactive: -0.072 | inactive: 0.057 | inactive: -0.024 | inactive: 0.01

At a glance, part of the list above:
Target | log2 fold change [1] | log2 fold change (volasertib) | log2 fold change [2] | log2 fold change [3] | log2 fold change (rosiglitazone) | log2 fold change (Tubastatin A) | log2 fold change [4] | log2 fold change (rucaparib) | log2 fold change (encorafenib) | log2 fold change (epoxomicin) | log2 fold change [5] | log2 fold change [6] | log2 fold change [7] | log2 fold change [8] | log2 fold change (saracatinib) | log2 fold change (sotrastaurin) | log2 fold change (defactinib) | log2 fold change [9] | log2 fold change [10] | log2 fold change (alvocidib)
SLC35A1 (UniProt P78382) | inactive: 0.148 | inactive: 0.118 | inactive: -0.034 | – | – | inactive: -0.038 | inactive: -0.016 | inactive: 0.048 | inactive: 0.043 | inactive: 0.018 | – | inactive: -0.056 | inactive: -0.191 | – | inactive: 0.038 | inactive: 0.015 | inactive: -0.198 | inactive: -0.112 | inactive: -0.211 | –
SLC29A3 (UniProt Q9BZD2) | inactive: 0.171 | inactive: 0.007 | inactive: 0.05 | – | – | inactive: 0.092 | inactive: 0.105 | inactive: -0.083 | inactive: -0.05 | inactive: -0.048 | – | inactive: 0.002 | inactive: -0.161 | – | inactive: 0.089 | inactive: 0.056 | inactive: 0.013 | inactive: -0.018 | inactive: 0.055 | –
